Laboratory results taken from PMC2225407.

Chains of the proteins cited; added tags and fusions are not shown. Lines headed by an entry give the natural chain unless they say otherwise; changes in a name come on top.
UniProt G5EDJ0: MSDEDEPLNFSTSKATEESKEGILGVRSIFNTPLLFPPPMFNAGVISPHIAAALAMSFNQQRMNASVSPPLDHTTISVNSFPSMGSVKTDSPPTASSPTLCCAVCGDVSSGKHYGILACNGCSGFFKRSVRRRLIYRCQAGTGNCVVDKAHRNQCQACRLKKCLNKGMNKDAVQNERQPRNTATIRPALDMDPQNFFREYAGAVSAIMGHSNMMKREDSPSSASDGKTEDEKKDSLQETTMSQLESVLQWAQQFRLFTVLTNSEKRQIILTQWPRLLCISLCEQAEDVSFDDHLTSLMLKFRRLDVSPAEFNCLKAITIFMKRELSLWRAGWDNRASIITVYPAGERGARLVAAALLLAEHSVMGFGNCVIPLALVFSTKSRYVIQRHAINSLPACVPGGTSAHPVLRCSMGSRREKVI

Target: MBP::FAX-1 (Caenorhabditis elegans) (UniProt G5EDJ0)
Experiment: competition with a labelled probe
Details: EMSA: 1.5 ug MBP::FAX-1, 4 ng 32P ds oligo, BSA, 30 min pre-incubation + 30 min on ice, 8% native PAGE, binding buffer salt and pH not given, recombinant protein, protein details: MBP (N-terminal fusion implied by name), label: 32P (fill-in) as probe, unlabeled as competitor
[1] = 10x and 100x unlabeled vs labeled HRSW
[2] = 10x and 100x unlabeled vs labeled DR1A

AATTACCCTTTTAAAAGTCAAAATTCAACTTCCAA / TCGATTGGAAGTTGAATTTTGACTTTTAAAAGGGT [HRSW]
binding result [1]: binds

AATTACCCTTTTAAAGGTCAAAGGTCAACTTCCAA / TCGATTGGAAGTTGACCTTTGACCTTTAAAAGGGT [DR1G]
binding result (10x and 100x unlabeled vs labeled DR1A, similar to DR1A): binds

AATTACCCTTTTAAAAGTCAAAAGTCAACTTCCAA / TCGATTGGAAGTTGACTTTTGACTTTTAAAAGGGT [DR1A]
binding result [2]: binds | binding result (unlabeled vs labeled DR1C, more effective than DR1C): binds

AATTACCCTTTTAAAATTCAAAATTCAACTTCCAA / TCGATTGGAAGTTGAATTTTGAATTTTAAAAGGGT [DRNC]
binding result [2]: no binding | binding result [1]: no binding

AATTACCCTTTTAAACGTCAAACGTCAACTTCCAA / TCGATTGGAAGTTGACGTTTGACGTTTAAAAGGGT [DR1C]
binding result (unlabeled vs labeled DR1C, less effective than DR1A): binds more weakly

For at least one entry, the source does not settle the construct or the ends of the probe. A negative result means that nothing was seen under these conditions. Weaker means in comparison with the reference protein, sequence or condition of that experiment.
